Data on three sequences can be found in PMC11384114.

The exact form of at least one protein or probe is not confirmed. Negatives hold for the conditions tested.

This data set concerns MBP-SlPIF4 (Solanum lycopersicum (tomato)). Put plainly: EMSA. Particulars: LightShift Chemiluminescent EMSA kit (Thermo 20148); unlabeled competitor 100x, 300x, 500x; pH and temperature not stated; recombinant protein; protein details: MBP; label: biotin 3' end. In general terms: A gel shift assay detects complexes by their altered migration in electrophoresis.
On to “TTTAACGTTAATTTTTTTTTTTACATACTTAAAATCAC (double strand) [SlCCD8-mut]”, for which the binding result is “no binding”.

For the sequence “AGTTTTCGAATGTATCCCATGTTA (double strand) [SlMAX1-mut]”, the binding result is on record as “no binding”.

For the sequence “AACTTTAATTTATGACCGACAAAAACTCTTT (double strand) [SlCCD7-mut]”, the binding result is reported as “no binding”.
